Measurements: the supplement of paper PMC10849652
Some of the results follow.

Sequences of proteins named here, by UniProt entry; tags and fusion partners are left off. A change or cut given only in a name is not applied to a line headed by its entry.
UniProt O60610, whole entry, looked up: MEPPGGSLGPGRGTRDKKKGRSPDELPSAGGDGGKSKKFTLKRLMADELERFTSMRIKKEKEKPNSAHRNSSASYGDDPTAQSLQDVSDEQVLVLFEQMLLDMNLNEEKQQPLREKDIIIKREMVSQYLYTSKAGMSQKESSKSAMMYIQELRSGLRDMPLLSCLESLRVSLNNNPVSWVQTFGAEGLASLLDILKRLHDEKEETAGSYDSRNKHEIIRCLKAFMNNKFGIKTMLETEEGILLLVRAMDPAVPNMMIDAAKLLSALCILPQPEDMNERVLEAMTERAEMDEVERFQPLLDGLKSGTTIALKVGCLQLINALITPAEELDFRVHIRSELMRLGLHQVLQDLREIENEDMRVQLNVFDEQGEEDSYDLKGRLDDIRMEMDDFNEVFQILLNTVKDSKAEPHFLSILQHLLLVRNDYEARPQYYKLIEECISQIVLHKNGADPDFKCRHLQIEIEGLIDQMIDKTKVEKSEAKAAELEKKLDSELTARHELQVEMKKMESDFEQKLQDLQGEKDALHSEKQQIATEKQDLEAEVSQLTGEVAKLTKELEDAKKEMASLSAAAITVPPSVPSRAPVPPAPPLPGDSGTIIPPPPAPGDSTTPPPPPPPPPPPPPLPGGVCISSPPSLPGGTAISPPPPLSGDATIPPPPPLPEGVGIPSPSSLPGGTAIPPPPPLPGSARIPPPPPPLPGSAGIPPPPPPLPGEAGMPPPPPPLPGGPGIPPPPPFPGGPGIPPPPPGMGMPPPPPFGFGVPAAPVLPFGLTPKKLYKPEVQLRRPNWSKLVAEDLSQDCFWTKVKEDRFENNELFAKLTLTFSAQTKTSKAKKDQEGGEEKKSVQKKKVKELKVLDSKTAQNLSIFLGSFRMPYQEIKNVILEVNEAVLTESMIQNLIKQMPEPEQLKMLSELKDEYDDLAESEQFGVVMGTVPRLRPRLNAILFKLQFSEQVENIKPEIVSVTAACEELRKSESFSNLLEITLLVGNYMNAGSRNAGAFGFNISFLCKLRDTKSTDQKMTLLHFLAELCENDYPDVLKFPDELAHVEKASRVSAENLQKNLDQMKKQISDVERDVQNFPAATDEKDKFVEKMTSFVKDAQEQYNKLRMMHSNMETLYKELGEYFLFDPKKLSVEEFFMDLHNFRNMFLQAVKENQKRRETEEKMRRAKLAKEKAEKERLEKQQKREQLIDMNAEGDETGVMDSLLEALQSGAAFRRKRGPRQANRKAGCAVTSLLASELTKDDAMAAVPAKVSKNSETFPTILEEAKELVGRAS
UniProt O75911: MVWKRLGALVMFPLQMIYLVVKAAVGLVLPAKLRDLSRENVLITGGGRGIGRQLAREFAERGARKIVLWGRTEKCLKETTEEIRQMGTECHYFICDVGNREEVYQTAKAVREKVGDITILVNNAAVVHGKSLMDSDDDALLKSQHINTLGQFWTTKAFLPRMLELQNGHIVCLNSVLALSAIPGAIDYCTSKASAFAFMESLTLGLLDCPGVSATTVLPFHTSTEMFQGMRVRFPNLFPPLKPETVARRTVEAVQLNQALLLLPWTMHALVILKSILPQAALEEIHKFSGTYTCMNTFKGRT
UniProt Q8TDJ6, whole entry, looked up: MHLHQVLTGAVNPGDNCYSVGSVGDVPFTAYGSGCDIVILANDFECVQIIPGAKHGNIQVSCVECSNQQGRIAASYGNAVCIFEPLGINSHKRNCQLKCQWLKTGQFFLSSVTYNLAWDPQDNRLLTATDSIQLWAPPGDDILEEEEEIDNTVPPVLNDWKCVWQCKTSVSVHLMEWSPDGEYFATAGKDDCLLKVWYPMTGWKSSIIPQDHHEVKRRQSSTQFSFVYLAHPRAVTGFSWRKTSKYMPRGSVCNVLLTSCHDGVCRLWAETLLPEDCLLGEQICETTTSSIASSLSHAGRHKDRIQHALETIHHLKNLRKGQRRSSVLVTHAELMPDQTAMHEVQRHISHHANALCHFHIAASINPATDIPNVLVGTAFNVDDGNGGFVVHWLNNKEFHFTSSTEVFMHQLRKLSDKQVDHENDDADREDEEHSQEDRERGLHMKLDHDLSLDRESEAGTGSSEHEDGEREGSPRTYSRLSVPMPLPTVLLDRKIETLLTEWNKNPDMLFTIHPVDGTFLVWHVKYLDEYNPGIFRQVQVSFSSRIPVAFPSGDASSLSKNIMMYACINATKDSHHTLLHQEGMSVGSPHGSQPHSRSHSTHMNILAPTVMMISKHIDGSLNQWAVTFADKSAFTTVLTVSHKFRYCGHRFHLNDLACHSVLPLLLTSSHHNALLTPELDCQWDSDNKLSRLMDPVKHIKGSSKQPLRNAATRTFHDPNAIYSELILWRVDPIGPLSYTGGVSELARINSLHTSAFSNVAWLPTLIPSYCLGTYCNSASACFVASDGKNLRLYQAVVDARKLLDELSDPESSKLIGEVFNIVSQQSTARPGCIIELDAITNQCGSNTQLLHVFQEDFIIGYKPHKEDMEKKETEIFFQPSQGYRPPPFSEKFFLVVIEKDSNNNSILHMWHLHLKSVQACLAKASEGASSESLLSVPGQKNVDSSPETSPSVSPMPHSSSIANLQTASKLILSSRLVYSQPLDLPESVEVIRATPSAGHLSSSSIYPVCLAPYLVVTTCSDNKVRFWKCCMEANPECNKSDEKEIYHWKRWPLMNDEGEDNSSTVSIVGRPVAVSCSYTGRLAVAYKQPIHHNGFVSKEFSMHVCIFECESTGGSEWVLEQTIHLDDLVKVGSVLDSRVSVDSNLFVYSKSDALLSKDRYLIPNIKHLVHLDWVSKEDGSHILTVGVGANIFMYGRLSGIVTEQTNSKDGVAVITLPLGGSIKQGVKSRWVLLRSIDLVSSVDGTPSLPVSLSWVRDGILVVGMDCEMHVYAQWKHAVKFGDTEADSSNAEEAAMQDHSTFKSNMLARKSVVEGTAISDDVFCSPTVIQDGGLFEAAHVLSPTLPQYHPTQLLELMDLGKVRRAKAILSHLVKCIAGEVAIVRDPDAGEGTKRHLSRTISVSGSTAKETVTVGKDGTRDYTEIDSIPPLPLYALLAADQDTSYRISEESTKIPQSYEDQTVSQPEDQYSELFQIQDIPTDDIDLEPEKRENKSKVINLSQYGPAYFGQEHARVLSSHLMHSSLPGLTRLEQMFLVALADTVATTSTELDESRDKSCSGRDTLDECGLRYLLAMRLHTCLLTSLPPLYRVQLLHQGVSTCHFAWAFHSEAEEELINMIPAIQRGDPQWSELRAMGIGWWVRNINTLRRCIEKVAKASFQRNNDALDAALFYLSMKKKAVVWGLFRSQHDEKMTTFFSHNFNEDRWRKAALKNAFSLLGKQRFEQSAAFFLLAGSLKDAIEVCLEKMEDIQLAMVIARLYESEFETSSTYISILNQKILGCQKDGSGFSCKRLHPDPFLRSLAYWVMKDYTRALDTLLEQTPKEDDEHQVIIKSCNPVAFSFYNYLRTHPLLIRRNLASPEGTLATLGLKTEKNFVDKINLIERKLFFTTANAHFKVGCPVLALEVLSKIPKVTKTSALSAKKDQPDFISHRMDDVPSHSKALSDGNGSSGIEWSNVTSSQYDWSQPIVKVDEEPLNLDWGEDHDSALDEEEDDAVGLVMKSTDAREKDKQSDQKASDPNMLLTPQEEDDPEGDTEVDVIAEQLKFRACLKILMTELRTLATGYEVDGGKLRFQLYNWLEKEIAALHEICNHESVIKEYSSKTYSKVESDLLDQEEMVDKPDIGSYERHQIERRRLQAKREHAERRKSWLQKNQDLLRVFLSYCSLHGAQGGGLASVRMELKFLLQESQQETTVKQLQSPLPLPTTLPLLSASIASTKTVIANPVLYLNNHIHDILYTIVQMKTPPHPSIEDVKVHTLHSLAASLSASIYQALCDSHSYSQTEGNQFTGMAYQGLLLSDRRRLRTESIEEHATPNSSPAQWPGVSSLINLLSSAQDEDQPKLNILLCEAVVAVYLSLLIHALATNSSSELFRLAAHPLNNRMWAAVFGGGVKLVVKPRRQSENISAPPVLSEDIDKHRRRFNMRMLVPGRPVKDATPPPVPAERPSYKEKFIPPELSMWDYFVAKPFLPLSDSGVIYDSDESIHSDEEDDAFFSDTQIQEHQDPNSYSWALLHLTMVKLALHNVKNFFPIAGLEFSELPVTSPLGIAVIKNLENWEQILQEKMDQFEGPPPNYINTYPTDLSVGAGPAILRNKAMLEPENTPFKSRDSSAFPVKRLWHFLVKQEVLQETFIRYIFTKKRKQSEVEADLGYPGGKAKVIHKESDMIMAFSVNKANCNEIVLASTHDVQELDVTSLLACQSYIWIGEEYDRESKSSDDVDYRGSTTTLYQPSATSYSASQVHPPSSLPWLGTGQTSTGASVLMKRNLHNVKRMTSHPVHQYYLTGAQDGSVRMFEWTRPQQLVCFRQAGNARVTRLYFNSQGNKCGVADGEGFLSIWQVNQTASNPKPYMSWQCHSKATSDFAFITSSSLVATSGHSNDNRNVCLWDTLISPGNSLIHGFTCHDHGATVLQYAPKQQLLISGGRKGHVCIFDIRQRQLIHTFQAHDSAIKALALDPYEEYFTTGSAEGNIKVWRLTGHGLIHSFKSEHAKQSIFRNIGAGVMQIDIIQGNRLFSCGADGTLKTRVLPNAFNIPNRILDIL
UniProt Q6UWP2: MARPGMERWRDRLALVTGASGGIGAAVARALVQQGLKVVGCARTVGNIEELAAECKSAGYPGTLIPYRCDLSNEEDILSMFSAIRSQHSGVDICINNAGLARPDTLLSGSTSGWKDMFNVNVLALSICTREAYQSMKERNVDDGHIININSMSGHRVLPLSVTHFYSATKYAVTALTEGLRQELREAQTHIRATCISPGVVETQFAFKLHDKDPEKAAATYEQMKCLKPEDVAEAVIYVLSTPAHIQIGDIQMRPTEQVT
UniProt Q9BVM2: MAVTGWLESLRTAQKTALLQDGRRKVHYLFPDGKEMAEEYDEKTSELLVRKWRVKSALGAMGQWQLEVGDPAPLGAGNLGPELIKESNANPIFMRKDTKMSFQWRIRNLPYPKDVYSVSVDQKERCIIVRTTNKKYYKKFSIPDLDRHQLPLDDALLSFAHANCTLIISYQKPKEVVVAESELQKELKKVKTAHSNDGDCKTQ
UniProt O75937: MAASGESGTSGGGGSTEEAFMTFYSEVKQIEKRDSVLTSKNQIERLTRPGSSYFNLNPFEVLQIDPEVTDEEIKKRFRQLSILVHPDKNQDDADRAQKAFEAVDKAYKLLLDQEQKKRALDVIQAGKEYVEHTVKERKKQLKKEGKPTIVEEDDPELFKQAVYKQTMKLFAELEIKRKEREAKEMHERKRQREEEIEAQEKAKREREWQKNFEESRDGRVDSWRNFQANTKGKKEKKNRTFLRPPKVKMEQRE
UniProt Q92796: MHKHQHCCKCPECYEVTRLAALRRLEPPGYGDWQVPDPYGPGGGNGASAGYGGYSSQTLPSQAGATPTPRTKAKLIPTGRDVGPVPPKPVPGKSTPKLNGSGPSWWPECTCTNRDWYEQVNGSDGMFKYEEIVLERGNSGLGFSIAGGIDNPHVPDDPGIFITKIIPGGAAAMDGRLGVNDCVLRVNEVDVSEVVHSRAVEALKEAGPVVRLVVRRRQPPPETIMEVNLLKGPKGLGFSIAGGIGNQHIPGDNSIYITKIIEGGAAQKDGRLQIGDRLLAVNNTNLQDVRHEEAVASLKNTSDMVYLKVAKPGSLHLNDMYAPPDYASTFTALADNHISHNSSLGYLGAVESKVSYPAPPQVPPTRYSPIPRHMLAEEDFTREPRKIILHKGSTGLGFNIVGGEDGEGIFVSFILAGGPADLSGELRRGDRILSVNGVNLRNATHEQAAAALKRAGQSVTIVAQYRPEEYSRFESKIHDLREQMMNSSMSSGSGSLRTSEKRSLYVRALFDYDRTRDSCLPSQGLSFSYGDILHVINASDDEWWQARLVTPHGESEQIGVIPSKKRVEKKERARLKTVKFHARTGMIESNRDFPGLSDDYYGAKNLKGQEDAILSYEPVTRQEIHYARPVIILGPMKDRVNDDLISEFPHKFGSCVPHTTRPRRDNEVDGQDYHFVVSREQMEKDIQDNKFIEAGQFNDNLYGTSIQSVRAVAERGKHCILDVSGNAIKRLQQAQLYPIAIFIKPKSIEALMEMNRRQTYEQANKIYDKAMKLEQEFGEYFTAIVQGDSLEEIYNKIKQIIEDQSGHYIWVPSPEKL
UniProt Q02127: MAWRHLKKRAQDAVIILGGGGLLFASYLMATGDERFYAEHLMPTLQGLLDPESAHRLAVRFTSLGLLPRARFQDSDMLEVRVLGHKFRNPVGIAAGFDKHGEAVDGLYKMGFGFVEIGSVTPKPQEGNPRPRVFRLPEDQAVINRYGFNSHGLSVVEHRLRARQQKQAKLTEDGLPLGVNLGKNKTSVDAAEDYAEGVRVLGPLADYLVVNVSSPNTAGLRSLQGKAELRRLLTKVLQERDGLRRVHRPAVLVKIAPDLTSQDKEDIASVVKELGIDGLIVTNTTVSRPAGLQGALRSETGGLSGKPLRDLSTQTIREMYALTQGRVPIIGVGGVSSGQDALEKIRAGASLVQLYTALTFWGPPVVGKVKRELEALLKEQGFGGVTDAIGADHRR

Experiments:
Assay in all cases: log2 fold change, soluble protein after heating vs DMSO (PISA); higher = thermal stabilisation; K562 lysate, 10 uM; active = over 0.2 and 3.5 SD of the protein, either way, in both replicates (recomputed)
erlotinib = compound: C#Cc1cccc(Nc2ncnc3cc(OCCOC)c(OCCOC)cc23)c1 [erlotinib]
Outline: (§1)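 The values are log-two fold changes in thermal stability compared with solvent controls and come from duplicates. They were obtained by TMTpro 16plex LC-MS/MS, with channel sums equalised, on the supernatant after 21,000xg for 90 min. That supernatant came from crude K562 extract at 1 mg/mL protein treated with 10 μM compound for 30 min, heated for 3 min across 48°C-58°C, pooled and brought to 0.5% NP-40 at 4°C.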

[1] = compound: C/C(=N\NC(=O)C1=CC(=CC=C1)S(=O)(=O)N2CCOCC2)/C3=C(C=CC(=C3)Cl)O
Outline: as §1

[2] = compound: C1=CC(=CC=C1C2=NC3=C(N2)C=C(C=C3)C(=O)N)OC4=CC=C(C=C4)Cl
Outline: as §1

[3] = compound: C1=CC2=C(C=CC(=C2)/C=C\3/C(=O)NC(=NCC4=CC=CS4)S3)N=C1
Outline: as §1

[4] = compound: C1=CC2=NC=CN=C2C=C1/C=C/3\C(=O)NC(=O)S3
Outline: as §1

[5] = compound: C1=CC=C(C=C1)C2=NC(=C(N2)C3=CC=NC=C3)C4=CC(=C(C=C4)Cl)O
Outline: as §1

[6] = compound: C1=CC=C2C(=C1)C3=NNC4=CC=CC(=C43)C2=O
Outline: as §1

[7] = compound: C1CCN(C1)C(=O)NC2=CC=CC(=C2)NC3=NC=C(C(=N3)NCCC4=CN=CN4)Br
Outline: as §1

[8] = compound: C1CN(CCC1(CC2=CC=C(C=C2)Cl)N)C3=NC=NC4=C3C=CN4
Outline: as §1

IRAK-1-4 Inhibitor I = compound: C1COCCN1CCN2C3=CC=CC=C3N=C2NC(=O)C4=CC(=CC=C4)[N+](=O)[O-] [IRAK-1-4 Inhibitor I]
Outline: as §1

ibrutinib = compound: C=CC(=O)N1CCC[C@@H](n2nc(-c3ccc(Oc4ccccc4)cc3)c3c(N)ncnc32)C1 [ibrutinib]
Outline: as §1

[9] = compound: CC(=O)c1cnc2ccc(-c3cc(Cl)c(O)c(Cl)c3)nc2c1N[C@H]1CC[C@H](CN(C)C)CC1
Outline: as §1

ralimetinib = compound: CC(C)(C)Cn1c(N)nc2ccc(-c3[nH]c(C(C)(C)C)nc3-c3ccc(F)cc3)nc21 [ralimetinib]
Outline: as §1

[10] = compound: CC(C)(O)CC(=O)NCCn1ccc2ncnc(Nc3ccc(Oc4cccc(C(F)(F)F)c4)c(Cl)c3)c21
Outline: as §1

[11] = compound: CC(C)C1=C2N=C(C=C(N2N=C1)NCC3=CC=CC=C3)NCCCCCCN
Outline: as §1

[12] = compound: CC1=C(C(CC(=O)N1)C2=CC=C(C=C2)C(F)(F)F)C(=O)NC3=C(C=C4C(=C3)C=NN4)F
Outline: as §1

[13] = compound: CC1=C(C2=C(C=C1)C(=O)C3=CC=CC=C3N2CCCN)C
Outline: as §1

[14] = compound: CC1=C(C=C(C=C1)NC(=O)C2=CC(=CC=C2)C(C)(C)C#N)NC3=CC4=C(C=C3)N=CN(C4=O)C
Outline: as §1

[15] = compound: CC1=C(C=C(C=C1)NC(=O)C2=CC(=CC=C2)N(C)C)NC(=O)C3=CC=C(C=C3)O
Outline: as §1

[16] = compound: CC1=CC=C(C=C1)SC2=C3C=C(SC3=CN=C2)C(=O)N
Outline: as §1

Measured: log2 fold change

DIDO1 (UniProt Q9BTC0)
inactive: erlotinib 0.024 | [1] 0.003 | [2] -0.01 | [3] -0.037 | [4] -0.044 | [5] -0.02 | [6] -0.011 | [7] -0.009 | [8] 0.005 | IRAK-1-4 Inhibitor I 0.016 | ibrutinib 0.107 | [9] 0.014 | ralimetinib 0.041 | [10] 0.013 | [11] -0.013 | [12] 0 | [13] -0.019 | [14] -0.015 | [15] 0.012 | [16] -0.015

DIAPH1 (UniProt O60610)
inactive: erlotinib -0.004 | [1] -0.006 | [2] 0.002 | [3] 0.007 | [4] -0.002 | [5] -0.001 | [6] -0.006 | [7] -0.01 | [8] -0.001 | IRAK-1-4 Inhibitor I -0.007 | ibrutinib -0.028 | [9] -0.004 | ralimetinib -0.006 | [10] 0.005 | [11] -0.01 | [12] -0.009 | [13] 0.003 | [14] -0.004 | [15] 0.001 | [16] 0.004

DHRS3 (UniProt O75911)
inactive: erlotinib 0.056 | [1] 0.08 | [2] 0.047 | [3] -0.008 | [4] -0.044 | [5] 0.03 | [6] -0.028 | [7] -0.007 | [8] 0.016 | IRAK-1-4 Inhibitor I 0.046 | ibrutinib 0.064 | [9] -0.07 | ralimetinib 0.048 | [10] -0.023 | [11] 0.034 | [12] -0.001 | [13] -0.069 | [14] -0.015 | [15] -0.046 | [16] 0.045

DMXL2 isoform 3 (UniProt Q8TDJ6)
inactive: erlotinib 0.046 | [1] -0.039 | [2] -0.007 | [3] 0.04 | [4] 0.082 | [5] -0.051 | [6] -0.053 | [7] -0.04 | [8] 0.025 | IRAK-1-4 Inhibitor I -0.005 | ibrutinib -0.033 | [9] -0.012 | ralimetinib 0.006 | [10] -0.002 | [11] -0.039 | [12] 0.053 | [13] -0.013 | [14] -0.01 | [15] 0.048 | [16] 0.044

DIAPH3 (UniProt Q9NSV4)
inactive: erlotinib 0.042 | [1] 0.07 | [2] -0.022 | [3] 0.05 | [4] 0.074 | [5] 0.045 | [6] -0.066 | [7] -0.04 | [8] -0.082 | IRAK-1-4 Inhibitor I -0.041 | ibrutinib 0.012 | [9] 0.093 | ralimetinib 0.086 | [10] -0.032 | [11] -0.066 | [12] 0.043 | [13] 0.005 | [14] -0.011 | [15] 0.038 | [16] -0.035

DGUOK (UniProt Q16854)
inactive: erlotinib 0.011 | [1] 0.05 | [2] 0.031 | [3] 0.083 | [4] 0.016 | [5] 0.047 | [6] -0.039 | [7] 0.006 | [8] 0.047 | IRAK-1-4 Inhibitor I 0.055 | ibrutinib -0.05 | [9] -0.002 | ralimetinib -0.053 | [10] 0.023 | [11] -0.006 | [12] -0.024 | [13] 0.02 | [14] 0.003 | [15] -0.022 | [16] -0.028

DOCK9 isoform 4 (UniProt Q9BZ29)
inactive: erlotinib 0.034 | [1] 0 | [2] -0.015 | [3] 0.021 | [4] 0.055 | [5] 0.002 | [6] -0.072 | [7] -0.018 | [8] 0.034 | IRAK-1-4 Inhibitor I 0.011 | ibrutinib -0.031 | [9] 0.007 | ralimetinib -0.06 | [10] 0.001 | [11] -0.038 | [12] 0.062 | [13] -0.048 | [14] -0.06 | [15] 0.06 | [16] -0.008

DNMT1 isoform 2 (UniProt P26358)
inactive: erlotinib -0.03 | [1] 0.022 | [2] 0.004 | [3] -0.024 | [4] -0.014 | [5] -0.008 | [6] 0.025 | [7] 0.007 | [8] 0 | IRAK-1-4 Inhibitor I -0.009 | ibrutinib -0.01 | [9] -0.004 | ralimetinib 0.018 | [10] 0.01 | [11] 0.004 | [12] -0.004 | [13] 0 | [14] -0.011 | [15] -0.004 | [16] 0.003

DNM1L isoform 2 (UniProt O00429)
inactive: erlotinib -0.152 | [1] 0.092 | [2] 0.061 | [3] 0.024 | [4] -0.074 | [5] 0.03 | [6] -0.084 | [7] -0.218 | [8] -0.038 | IRAK-1-4 Inhibitor I 0.092 | ibrutinib -0.104 | [9] 0.031 | ralimetinib -0.07 | [10] -0.024 | [11] -0.065 | [12] 0.083 | [13] -0.098 | [14] -0.029 | [15] 0.075 | [16] -0.064

DHRS11 (UniProt Q6UWP2)
inactive: erlotinib 0.054 | [1] -0.017 | [2] -0.004 | [3] 0.017 | [4] -0.006 | [5] -0.015 | [6] -0.008 | [7] -0.041 | [8] 0.042 | IRAK-1-4 Inhibitor I -0.02 | ibrutinib 0.028 | [9] -0.008 | ralimetinib 0.028 | [10] -0.014 | [11] 0.048 | [12] -0.005 | [13] -0.029 | [14] 0.007 | [15] 0.015 | [16] 0.03

DHX36 (UniProt Q9H2U1)
inactive: erlotinib -0.013 | [1] -0.021 | [2] 0.014 | [3] 0.021 | [4] 0.003 | [5] -0.006 | [6] 0.005 | [7] 0.027 | [8] 0.014 | IRAK-1-4 Inhibitor I 0.018 | ibrutinib 0.021 | [9] -0.013 | ralimetinib 0.027 | [10] -0.016 | [11] -0.013 | [12] -0.001 | [13] 0.016 | [14] -0.022 | [15] -0.019 | [16] 0.007

DPCD (UniProt Q9BVM2)
inactive: erlotinib 0.051 | [1] 0.057 | [2] 0.061 | [3] -0.011 | [4] 0.022 | [5] -0.007 | [6] -0.002 | [7] 0.013 | [8] -0.031 | IRAK-1-4 Inhibitor I -0.002 | ibrutinib 0.011 | [9] -0.059 | ralimetinib 0.044 | [10] -0.078 | [11] 0.016 | [12] 0.018 | [13] -0.015 | [14] -0.004 | [15] 0.015 | [16] -0.054

DNAJC8 (UniProt O75937)
inactive: erlotinib -0.043 | [1] 0.008 | [2] -0.018 | [3] 0.012 | [4] -0.007 | [5] 0.034 | [6] 0.005 | [7] 0.011 | [8] 0.004 | IRAK-1-4 Inhibitor I -0.068 | ibrutinib 0.015 | [9] 0.017 | ralimetinib -0.071 | [10] 0.082 | [11] -0.026 | [12] 0.024 | [13] -0.026 | [14] -0.031 | [15] -0.006 | [16] 0.041

DLG3 isoform 2 (UniProt Q92796)
inactive: erlotinib -0.048 | [1] -0.085 | [2] 0.073 | [3] 0.002 | [4] -0.046 | [5] -0.012 | [6] -0.013 | [7] 0.019 | [8] -0.001 | IRAK-1-4 Inhibitor I -0.056 | ibrutinib 0.034 | [9] 0.009 | ralimetinib 0.124 | [10] 0.042 | [11] -0.005 | [12] 0.055 | [13] -0.009 | [14] -0.023 | [15] -0.033 | [16] 0.024

Pulled one by one from the entries so far (2):
DHRS11 (UniProt Q6UWP2)
inactive: erlotinib 0.054 | [1] -0.017 | [2] -0.004 | [3] 0.017 | [4] -0.006 | [5] -0.015 | [6] -0.008 | [7] -0.041 | [8] 0.042 | IRAK-1-4 Inhibitor I -0.02 | ibrutinib 0.028 | [9] -0.008 | ralimetinib 0.028 | [10] -0.014 | [11] 0.048 | [12] -0.005 | [13] -0.029 | [14] 0.007 | [15] 0.015 | [16] 0.03

DPCD (UniProt Q9BVM2)
inactive: erlotinib 0.051 | [1] 0.057 | [2] 0.061 | [3] -0.011 | [4] 0.022 | [5] -0.007 | [6] -0.002 | [7] 0.013 | [8] -0.031 | IRAK-1-4 Inhibitor I -0.002 | ibrutinib 0.011 | [9] -0.059 | ralimetinib 0.044 | [10] -0.078 | [11] 0.016 | [12] 0.018 | [13] -0.015 | [14] -0.004 | [15] 0.015 | [16] -0.054

Remaining list, next part

DOCK8 (UniProt Q8NF50)
inactive: erlotinib -0.001 | [1] -0.073 | [2] -0.016 | [3] 0.018 | [4] 0.005 | [5] 0.017 | [6] -0.023 | [7] 0.04 | [8] -0.021 | IRAK-1-4 Inhibitor I 0.014 | ibrutinib -0.033 | [9] -0.012 | ralimetinib 0.03 | [10] 0.047 | [11] 0.003 | [12] -0.005 | [13] 0.022 | [14] 0.004 | [15] 0.057 | [16] -0.011

DHODH (UniProt Q02127)
inactive: erlotinib -0.006 | [1] -0.014 | [2] 0.036 | [3] 0.003 | [4] 0.003 | [5] -0.009 | [6] -0.012 | [7] -0.008 | [8] 0.006 | IRAK-1-4 Inhibitor I -0.002 | ibrutinib 0.014 | [9] 0.011 | ralimetinib -0.023 | [10] -0.036 | [11] -0.043 | [12] 0.012 | [13] -0.028 | [14] 0.003 | [15] 0.007 | [16] -0.006
